Data taken from the supplement of paper PMC12819154, “High-throughput peptide-centric local stability assay extends protein–ligand identification to membrane proteins, tissues and bacteria” (Nature Structural & Molecular Biology, 2025).
The list shows a part of the results. Most values lie at the level of the controls, where differences are scatter.

Sequences of proteins named here, by UniProt entry; tags and fusion partners are left off. A change or cut given only in a name is not applied to a line headed by its entry.
UniProt P82347: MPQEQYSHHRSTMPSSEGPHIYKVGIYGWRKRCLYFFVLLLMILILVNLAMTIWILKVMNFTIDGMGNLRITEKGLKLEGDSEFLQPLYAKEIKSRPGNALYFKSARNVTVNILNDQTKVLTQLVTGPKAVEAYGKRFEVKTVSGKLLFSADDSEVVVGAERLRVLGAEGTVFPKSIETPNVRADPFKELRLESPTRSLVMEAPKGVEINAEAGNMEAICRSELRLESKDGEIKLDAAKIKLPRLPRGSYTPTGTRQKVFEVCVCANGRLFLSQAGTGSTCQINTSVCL
UniProt P97801, whole entry: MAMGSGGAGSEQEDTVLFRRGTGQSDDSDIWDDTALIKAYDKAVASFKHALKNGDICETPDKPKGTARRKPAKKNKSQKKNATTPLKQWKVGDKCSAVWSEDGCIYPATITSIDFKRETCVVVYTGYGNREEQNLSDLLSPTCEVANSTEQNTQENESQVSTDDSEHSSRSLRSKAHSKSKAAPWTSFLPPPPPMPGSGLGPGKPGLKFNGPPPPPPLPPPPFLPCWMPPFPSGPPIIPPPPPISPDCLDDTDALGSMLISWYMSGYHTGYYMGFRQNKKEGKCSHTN
UniProt P97765: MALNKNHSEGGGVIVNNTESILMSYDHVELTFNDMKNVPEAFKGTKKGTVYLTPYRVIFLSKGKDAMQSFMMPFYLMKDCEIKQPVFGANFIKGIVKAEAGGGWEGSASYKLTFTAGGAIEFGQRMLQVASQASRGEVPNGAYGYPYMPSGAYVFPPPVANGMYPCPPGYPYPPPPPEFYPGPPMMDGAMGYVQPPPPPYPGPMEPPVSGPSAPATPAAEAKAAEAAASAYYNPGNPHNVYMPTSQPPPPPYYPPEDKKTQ
UniProt P86049: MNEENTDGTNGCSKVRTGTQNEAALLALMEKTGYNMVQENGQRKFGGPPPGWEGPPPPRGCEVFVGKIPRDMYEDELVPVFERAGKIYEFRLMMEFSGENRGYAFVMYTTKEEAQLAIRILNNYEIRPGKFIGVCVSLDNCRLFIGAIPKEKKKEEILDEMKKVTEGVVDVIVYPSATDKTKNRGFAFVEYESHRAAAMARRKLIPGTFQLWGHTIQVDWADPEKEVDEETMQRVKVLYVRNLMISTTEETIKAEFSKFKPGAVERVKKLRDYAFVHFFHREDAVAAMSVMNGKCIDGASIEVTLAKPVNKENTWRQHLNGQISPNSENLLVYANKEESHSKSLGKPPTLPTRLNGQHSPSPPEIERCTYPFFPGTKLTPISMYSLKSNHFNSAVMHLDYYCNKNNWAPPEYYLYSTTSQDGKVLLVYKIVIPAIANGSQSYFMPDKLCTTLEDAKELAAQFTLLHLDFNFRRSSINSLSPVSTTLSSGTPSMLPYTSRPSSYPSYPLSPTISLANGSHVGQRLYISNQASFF
UniProt P97314: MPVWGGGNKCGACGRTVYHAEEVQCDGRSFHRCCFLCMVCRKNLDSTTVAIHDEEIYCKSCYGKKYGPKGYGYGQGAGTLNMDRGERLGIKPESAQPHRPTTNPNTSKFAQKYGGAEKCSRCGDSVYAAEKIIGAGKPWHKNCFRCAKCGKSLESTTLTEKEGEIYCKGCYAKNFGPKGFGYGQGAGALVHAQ
UniProt P97393, whole entry: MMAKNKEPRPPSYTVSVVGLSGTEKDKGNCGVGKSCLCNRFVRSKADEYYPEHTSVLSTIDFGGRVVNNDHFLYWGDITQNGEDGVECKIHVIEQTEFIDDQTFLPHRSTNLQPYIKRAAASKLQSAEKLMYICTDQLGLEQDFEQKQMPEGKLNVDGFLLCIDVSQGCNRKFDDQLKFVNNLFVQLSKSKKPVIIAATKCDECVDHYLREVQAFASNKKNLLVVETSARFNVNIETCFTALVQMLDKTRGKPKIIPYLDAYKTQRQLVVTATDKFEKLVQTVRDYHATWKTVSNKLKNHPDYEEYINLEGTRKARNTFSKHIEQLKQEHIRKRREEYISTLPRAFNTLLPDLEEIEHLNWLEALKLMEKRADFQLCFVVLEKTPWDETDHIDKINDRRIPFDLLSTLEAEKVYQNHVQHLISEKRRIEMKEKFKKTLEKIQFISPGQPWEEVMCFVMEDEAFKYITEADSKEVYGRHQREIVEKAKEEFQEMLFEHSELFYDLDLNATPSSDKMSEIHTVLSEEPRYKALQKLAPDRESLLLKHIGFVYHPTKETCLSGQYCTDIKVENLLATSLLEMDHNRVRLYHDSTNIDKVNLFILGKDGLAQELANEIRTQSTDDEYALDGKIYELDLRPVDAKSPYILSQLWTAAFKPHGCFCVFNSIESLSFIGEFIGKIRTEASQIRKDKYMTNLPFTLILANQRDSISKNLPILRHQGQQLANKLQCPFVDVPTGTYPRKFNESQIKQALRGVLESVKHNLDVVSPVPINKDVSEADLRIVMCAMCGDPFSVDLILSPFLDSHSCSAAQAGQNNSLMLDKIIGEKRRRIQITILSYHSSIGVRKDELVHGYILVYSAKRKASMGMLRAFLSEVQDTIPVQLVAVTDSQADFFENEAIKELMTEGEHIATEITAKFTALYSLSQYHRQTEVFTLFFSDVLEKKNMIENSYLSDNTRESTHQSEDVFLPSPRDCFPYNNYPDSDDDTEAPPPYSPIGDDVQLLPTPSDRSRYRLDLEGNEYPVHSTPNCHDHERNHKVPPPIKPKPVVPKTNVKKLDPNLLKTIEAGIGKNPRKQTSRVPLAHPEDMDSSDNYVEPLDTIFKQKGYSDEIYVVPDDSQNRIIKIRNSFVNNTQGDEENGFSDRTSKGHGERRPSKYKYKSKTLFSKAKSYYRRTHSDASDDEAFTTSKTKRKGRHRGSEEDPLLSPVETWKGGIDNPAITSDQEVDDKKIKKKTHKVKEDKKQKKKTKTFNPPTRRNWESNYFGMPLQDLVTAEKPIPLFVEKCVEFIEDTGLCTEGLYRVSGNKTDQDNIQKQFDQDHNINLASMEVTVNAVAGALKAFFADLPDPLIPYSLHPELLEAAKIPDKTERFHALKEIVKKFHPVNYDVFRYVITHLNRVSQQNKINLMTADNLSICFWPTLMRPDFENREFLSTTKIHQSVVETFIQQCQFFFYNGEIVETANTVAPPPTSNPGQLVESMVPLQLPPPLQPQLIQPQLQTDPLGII
UniProt Q02395: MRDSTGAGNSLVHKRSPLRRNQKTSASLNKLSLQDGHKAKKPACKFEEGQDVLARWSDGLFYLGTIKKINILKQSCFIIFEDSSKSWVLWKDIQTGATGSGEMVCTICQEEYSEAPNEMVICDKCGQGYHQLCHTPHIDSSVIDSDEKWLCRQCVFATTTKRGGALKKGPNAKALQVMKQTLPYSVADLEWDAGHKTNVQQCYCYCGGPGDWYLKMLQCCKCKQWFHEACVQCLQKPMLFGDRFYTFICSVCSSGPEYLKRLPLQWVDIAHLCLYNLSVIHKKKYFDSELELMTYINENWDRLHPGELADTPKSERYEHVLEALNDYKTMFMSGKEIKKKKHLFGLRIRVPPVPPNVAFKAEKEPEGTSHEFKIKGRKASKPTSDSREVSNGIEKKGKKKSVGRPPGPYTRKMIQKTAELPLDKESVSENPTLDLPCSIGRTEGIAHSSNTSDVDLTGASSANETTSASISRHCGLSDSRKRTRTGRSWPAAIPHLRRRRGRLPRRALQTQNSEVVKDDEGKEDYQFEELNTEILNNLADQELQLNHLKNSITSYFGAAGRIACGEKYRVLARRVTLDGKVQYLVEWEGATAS
UniProt P70265: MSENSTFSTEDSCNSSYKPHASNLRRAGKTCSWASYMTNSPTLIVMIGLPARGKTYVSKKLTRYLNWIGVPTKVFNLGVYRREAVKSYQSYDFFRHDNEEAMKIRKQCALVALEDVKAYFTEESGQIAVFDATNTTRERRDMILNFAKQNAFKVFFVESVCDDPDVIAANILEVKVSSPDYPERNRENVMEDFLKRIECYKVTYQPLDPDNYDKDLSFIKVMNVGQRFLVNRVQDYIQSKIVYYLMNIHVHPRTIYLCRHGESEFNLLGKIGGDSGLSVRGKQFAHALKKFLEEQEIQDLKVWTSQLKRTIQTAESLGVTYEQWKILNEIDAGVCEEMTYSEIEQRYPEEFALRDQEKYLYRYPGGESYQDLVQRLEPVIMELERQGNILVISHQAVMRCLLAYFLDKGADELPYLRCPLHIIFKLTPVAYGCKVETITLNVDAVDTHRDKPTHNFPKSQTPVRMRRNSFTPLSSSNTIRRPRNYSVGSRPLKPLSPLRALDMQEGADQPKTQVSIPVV
UniProt P70191: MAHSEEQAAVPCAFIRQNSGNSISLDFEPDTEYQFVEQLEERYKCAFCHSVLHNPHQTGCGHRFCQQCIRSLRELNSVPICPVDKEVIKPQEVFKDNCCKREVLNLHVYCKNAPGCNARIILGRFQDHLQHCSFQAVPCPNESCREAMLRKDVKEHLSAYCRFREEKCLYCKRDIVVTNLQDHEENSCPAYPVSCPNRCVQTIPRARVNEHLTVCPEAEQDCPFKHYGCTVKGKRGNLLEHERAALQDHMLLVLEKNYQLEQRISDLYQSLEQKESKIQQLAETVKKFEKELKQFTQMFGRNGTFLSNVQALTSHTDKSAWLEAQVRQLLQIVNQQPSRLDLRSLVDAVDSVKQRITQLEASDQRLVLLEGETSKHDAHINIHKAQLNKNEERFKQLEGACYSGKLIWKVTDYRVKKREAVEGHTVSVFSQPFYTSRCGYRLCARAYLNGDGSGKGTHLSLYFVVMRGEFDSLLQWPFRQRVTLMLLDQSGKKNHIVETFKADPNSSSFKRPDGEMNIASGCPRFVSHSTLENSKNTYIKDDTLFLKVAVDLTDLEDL

The targets below were run with CN[C@@H]1C[C@H]2O[C@@](C)([C@@H]1OC)n1c3ccccc3c3c4c(c5c6ccccc6n2c5c31)C(=O)NC4 [staurosporine] (assay: log2 fold change of tryptic peptide abundance, ligand vs vehicle (limited proteolysis) (log2 ratio); higher = more trypsin-susceptible (destabilized)). Conditions: ligand concentration: 20 uM; sample: mouse liver crude lysate; replicate design: treated separately.

| Target | log2 fold change |
| --- | --- |
| UniProt P97499 (peptide sequence: ASPFPSNTTLMK, peptide start residue: 590) | 0.542 |
| UniProt P82347 (peptide sequence: VLTQLVTGPK, peptide start residue: 120) | -0.365 |
| UniProt P97801 (peptide sequence: HALKNGDICETPDKPK, peptide start residue: 49) | 0.352 |
| UniProt P97765 (peptide sequence: NVPEAFKGTK, peptide start residue: 37) | -0.547 |
| UniProt P86049 (peptide sequence: GFAFVEYESHR, peptide start residue: 180) | 0.0303 |
| UniProt P97314 (peptide sequence: GYGYGQGAGTLNMDRGER, peptide start residue: 70) | -0.243 |
| UniProt P97393 (peptide sequence: ESTHQSEDVFLPSPR, peptide start residue: 956) | -0.166 |
| UniProt Q02395 (peptide sequence: SWPAAIPHLR, peptide start residue: 488) | 0.432 |
| UniProt P70265 (peptide sequence: DKPTHNFPK, peptide start residue: 450) | 0.371 |
| UniProt P97431 (peptide sequence: EFNLMYDGTK, peptide start residue: 92) | -0.303 |
| UniProt P70191 (peptide sequence: KFEKELK, peptide start residue: 287) | -0.194 |
